At least one structure is not confirmed: it was looked up by name or label, or the drawing left a doubt.
Key:
[1] = tested on: subcutaneous metrazol (pentylenetetrazol) seizure; test: Subcutaneous metrazol seizure threshold test (scMet), mice, intraperitoneal; format: in vivo; details: ip;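 also: adult male CF no. 1 albino mice weighing 18-25 g, dosed intraperitoneally with compounds suspended in 0.5% methylcellulose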
[2] = tested on: maximal electroshock seizure (MES); test: Maximal electroshock seizure test (MES), mice, intraperitoneal; format: in vivo; details: ip;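 also: adult male CF no. 1 albino mice of 18–25 g, given compound intraperitoneally as a 0.5% methylcellulose suspension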
[3] = 30 mg/kg, 0.5 h after administration
[4] = 30 mg/kg, 4 h after administration
[5] = 100 mg/kg, 0.5 h after administration
[6] = 100 mg/kg, 4 h after administration
[7] = 300 mg/kg, 0.5 h after administration
[8] = 300 mg/kg, 4 h after administration

**Q.** Which results are given for `CCC(C)C(C(=O)Nc1ccc(S(N)(=O)=O)cc1)C(C)C` (stereo not drawn) [Compound 20, 2-isopropyl-3-methyl-N-(4-sulfamoyl-phenyl)-pentanamide]?
**A.** scMet (number of animals protected/number of animals tested) [1, 3]: 0/1 0/1 0/1; scMet (number of animals protected/number of animals tested) [1, 4]: 0/1 0/1 0/1; scMet (number of animals protected/number of animals tested) [1, 5]: 0/1 0/1 0/1; scMet (number of animals protected/number of animals tested) [1, 6]: 0/1 0/1 0/1; scMet (number of animals protected/number of animals tested) [1, 7]: 0/1 0/1 0/1; scMet (number of animals protected/number of animals tested) [1, 8]: 0/1 0/1 0/1; MES (number of animals protected/number of animals tested) [2, 3]: 0/1; MES (number of animals protected/number of animals tested) [2, 4]: 0/1; MES (number of animals protected/number of animals tested) [2, 5]: 0/3; MES (number of animals protected/number of animals tested) [2, 6]: 0/3; MES (number of animals protected/number of animals tested) [2, 7]: 0/1; MES (number of animals protected/number of animals tested) [2, 8]: 0/1
